{
  "sequences": {"note": "Sequences of proteins named here, by UniProt entry; tags and fusion partners are left off.", "UniProt Q68CP9": "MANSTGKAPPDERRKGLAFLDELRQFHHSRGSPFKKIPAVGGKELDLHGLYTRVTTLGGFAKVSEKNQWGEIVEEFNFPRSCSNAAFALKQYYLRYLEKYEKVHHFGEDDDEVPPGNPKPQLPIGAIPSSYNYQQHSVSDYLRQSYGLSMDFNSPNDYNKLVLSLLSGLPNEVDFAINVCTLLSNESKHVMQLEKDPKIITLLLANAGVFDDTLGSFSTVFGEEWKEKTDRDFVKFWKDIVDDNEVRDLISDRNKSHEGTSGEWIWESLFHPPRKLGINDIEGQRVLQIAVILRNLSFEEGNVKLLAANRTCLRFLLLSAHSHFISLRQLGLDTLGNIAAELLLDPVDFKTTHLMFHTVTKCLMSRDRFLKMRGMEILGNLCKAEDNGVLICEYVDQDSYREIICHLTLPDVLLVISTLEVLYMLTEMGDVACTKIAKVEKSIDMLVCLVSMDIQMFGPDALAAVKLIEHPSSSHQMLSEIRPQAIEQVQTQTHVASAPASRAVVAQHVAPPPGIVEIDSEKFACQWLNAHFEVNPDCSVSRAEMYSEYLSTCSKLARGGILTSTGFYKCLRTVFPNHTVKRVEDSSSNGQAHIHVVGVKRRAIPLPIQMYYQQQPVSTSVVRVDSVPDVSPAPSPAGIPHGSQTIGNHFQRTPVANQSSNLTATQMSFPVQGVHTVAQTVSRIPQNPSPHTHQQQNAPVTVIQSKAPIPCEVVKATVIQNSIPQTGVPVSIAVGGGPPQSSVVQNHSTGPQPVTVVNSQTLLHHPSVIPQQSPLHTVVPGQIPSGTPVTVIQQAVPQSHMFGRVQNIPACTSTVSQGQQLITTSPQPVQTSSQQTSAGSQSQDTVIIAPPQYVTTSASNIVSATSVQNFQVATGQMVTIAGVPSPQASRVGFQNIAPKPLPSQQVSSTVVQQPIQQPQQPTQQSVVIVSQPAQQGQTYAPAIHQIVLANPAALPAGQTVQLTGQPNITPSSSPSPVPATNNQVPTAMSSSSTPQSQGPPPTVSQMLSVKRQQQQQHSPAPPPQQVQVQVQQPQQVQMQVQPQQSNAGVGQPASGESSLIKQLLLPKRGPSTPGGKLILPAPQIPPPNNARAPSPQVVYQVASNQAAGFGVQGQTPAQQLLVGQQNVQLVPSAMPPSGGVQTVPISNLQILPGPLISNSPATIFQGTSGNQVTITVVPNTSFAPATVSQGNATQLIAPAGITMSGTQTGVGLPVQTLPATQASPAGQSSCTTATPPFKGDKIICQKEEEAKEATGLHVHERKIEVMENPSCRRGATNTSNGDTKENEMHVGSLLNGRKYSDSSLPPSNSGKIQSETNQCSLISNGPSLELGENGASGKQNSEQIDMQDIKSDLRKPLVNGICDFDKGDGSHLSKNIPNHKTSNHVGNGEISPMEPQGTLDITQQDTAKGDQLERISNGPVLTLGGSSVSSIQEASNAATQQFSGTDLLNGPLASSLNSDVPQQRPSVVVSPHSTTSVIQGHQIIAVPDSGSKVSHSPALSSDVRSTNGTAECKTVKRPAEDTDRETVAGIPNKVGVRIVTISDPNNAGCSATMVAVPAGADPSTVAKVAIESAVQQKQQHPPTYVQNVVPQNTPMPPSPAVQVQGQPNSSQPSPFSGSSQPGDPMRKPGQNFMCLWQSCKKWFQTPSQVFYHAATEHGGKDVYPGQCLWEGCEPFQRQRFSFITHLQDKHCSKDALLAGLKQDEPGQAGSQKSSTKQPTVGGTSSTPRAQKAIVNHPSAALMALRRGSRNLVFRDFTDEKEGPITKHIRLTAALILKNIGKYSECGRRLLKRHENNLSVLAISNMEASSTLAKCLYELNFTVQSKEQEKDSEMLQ"},
  "source": "paper PMC6775309",
  "binders": {"B1": {"name": "ERCC5 (protein, UniProt P28715 1-1186)", "chain": "MGVQGLWKLLECSGRQVSPEALEGKILAVDISIWLNQALKGVRDRHGNSIENPHLLTLFHRLCKLLFFRIRPIFVFDGDAPLLKKQTLVKRRQRKDLASSDSRKTTEKLLKTFLKRQAIKTAFRSKRDEALPSLTQVRRENDLYVLPPLQEEEKHSSEEEDEKEWQERMNQKQALQEEFFHNPQAIDIESEDFSSLPPEVKHEILTDMKEFTKRRRTLFEAMPEESDDFSQYQLKGLLKKNYLNQHIEHVQKEMNQQHSGHIRRQYEDEGGFLKEVESRRVVSEDTSHYILIKGIQAKTVAEVDSESLPSSSKMHGMSFDVKSSPCEKLKTEKEPDATPPSPRTLLAMQAALLGSSSEEELESENRRQARGRNAPAAVDEGSISPRTLSAIKRALDDDEDVKVCAGDDVQTGGPGAEEMRINSSTENSDEGLKVRDGKGIPFTATLASSSVNSAEEHVASTNEGREPTDSVPKEQMSLVHVGTEAFPISDESMIKDRKDRLPLESAVVRHSDAPGLPNGRELTPASPTCTNSVSKNETHAEVLEQQNELCPYESKFDSSLLSSDDETKCKPNSASEVIGPVSLQETSSIVSVPSEAVDNVENVVSFNAKEHENFLETIQEQQTTESAGQDLISIPKAVEPMEIDSEESESDGSFIEVQSVISDEELQAEFPETSKPPSEQGEEELVGTREGEAPAESESLLRDNSERDDVDGEPQEAEKDAEDSLHEWQDINLEELETLESNLLAQQNSLKAQKQQQERIAATVTGQMFLESQELLRLFGIPYIQAPMEAEAQCAILDLTDQTSGTITDDSDIWLFGARHVYRNFFNKNKFVEYYQYVDFHNQLGLDRNKLINLAYLLGSDYTEGIPTVGCVTAMEILNEFPGHGLEPLLKFSEWWHEAQKNPKIRPNPHDTKVKKKLRTLQLTPGFPNPAVAEAYLKPVVDDSKGSFLWGKPDLDKIREFCQRYFGWNRTKTDESLFPVLKQLDAQQTQLRIDSFFRLAQQEKEDAKRIKSQRLNRAVTCMLRKEKEAAASEIEAVSVAMEKEFELLDKAKGKTQKRGITNTLEESSSLKRKRLSDSKGKNTCGGFLGETCLSESSDGSSSEDAESSSLMNVQRRTAAKEPKTSASDSQNSVKEAPVKNGGATTSSSSDSDDDGGKEKMVLVTARSVFGKKRRKLRRARGRKRKT"}},
  "target": "ARID2 (UniProt Q68CP9)",
  "test": "co-IP; in cells; cell line, bait and antibodies not stated",
  "note": "Results are given in words; binding and its absence hold for the method and conditions named. In cells and extracts the contact can be indirect. Some results given as binding are weak or reduced against the parent protein; the word gives no strength.",
  "data": [
    {"binder": "B1", "values": [
      {"measurement": "binding", "result": "binds"}
    ]}
  ]
}
